Measurements as given in publication PMC3364953.
No constants are given. Whether binding was seen depends on the method and setting. Binding seen in cells or lysates may run through a third protein. Some entries that bind do so weakly or less than the wild type.

By UniProt entry, the sequences of proteins in these tests, tags left out. Where a name states a change or a piece, a line headed by the entry shows the natural chain unless it says otherwise. Chains listed by the source or under a name are the forms on record and can include a tag or linker.
histone fold domain of Cse4-Cys (D150-end), N-terminally tagged with 6xHis (P36012, form named): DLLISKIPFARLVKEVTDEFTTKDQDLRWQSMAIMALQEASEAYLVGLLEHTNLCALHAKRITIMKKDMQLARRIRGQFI

Legend:
[1] = biological target: H3 (A111C), untagged (budding yeast) (UniProt P61830); experiment: cross-linking; ex vivo cysteine cross-linking in crude yeast lysate or on isolated chromatin pellet; DTNB (also bBBr, BMOE) for 1 hour on ice in 25 mM sodium phosphate pH 7.0, 100 mM KCl, 2.5 mM MgCl2, 0.25% TritonX-100; SDS-PAGE without reducing agent, Western blot with anti-HA (H3) or anti-Myc (Cse4)
[2] = biological target: yeast histone H3-Cys, full-length, N-terminally tagged with Avitag (budding yeast) (UniProt P61830); experiment: cross-linking; spontaneous disulfide cross-link between introduced cysteines in E. coli; H3-Cys and Cse4-Cys expressed together or separately; bacterial culture resuspended in SDS-PAGE loading buffer with and without beta-mercaptoethanol, 15% SDS-PAGE, Western blot (Streptavidin-HRP for H3-Cys, anti-Penta-His for Cse4-Cys); dimers resolved by beta-mercaptoethanol

binding [2]	Substance	binding [1]
	Cse4-Myc3 (L204C) (from UniProt P36012 1-229)	no binding
binds	histone fold domain of Cse4-Cys (D150-end), N-terminally tagged with 6xHis (from UniProt P36012 150-229) (domain or fragment)	
